PMC3468582
No constants are given. Whether binding was seen depends on the method and setting. Some entries that bind do so weakly or less than the wild type.

Chains of the proteins cited; added tags and fusions are not shown.
UniProt P12367: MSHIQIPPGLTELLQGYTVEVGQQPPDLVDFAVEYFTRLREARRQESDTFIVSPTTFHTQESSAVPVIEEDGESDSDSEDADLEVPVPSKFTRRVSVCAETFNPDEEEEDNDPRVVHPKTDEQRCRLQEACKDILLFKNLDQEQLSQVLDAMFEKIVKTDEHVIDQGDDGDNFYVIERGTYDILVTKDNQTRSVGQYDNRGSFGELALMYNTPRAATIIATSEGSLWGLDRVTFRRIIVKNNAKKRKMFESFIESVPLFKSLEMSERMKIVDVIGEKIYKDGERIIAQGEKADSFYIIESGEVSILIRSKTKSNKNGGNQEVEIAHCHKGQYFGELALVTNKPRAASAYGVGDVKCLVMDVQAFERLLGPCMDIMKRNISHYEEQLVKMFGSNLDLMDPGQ

Molecular target: recombinant RIIα (type II alpha regulatory subunit of protein kinase A) (UniProt P12367)
Experiment: T7 phage display screening; 96-well dish coated with recombinant RIIα; clones of a T7-select phage display library of human heart cDNA screened; bound clones amplified by PCR and sequenced; only the target purified

B1: Chd8 peptide fragments isolated by T7 phage display (391–545aa of the Chd8-L1 isoform) (domain or fragment, UniProt Q9HCK8-1 391-545)
chain: GQRLSVPVKVVLQPQAGSSQGASSGLSVVKVLSASEVAALSSPASSAPHSGGKTGMEENRRLEHQKKQEKANRIVAEAIARARARGEQNIPRVLNEDELPSVRPEEEGEKKRRKKSAGERLKEEKPKKSKTSGASKTKGKSKLNTITPVVGKKRK
For B1, the binding was “binds”.
